In US20100297750:

Experiments:
Assay in all cases: pull-down
[1] = biological target: T1, ZFP36L1 (UniProt Q07352); conditions: protein in a lysate after overexpression, protein details: Myc-tagged, expressed in 293T cells, label: 3' flag peptide
T1 sequence (looked up, limits assumed): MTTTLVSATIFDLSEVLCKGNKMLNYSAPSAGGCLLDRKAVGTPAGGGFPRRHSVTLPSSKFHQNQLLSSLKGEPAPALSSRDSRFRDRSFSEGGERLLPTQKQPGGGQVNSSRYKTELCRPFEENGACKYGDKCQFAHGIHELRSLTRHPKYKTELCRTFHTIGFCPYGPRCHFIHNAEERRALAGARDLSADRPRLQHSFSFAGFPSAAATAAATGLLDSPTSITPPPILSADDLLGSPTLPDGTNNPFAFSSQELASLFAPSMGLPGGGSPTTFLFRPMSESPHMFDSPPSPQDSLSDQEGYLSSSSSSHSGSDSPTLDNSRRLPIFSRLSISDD

[2] = biological target: T2, ZFP36L1 (endogenous) (UniProt Q07352); conditions: identified by LC-MS/MS from 293T extract; protein in an extract; label: 3' flag peptide
T2 sequence (looked up, limits assumed): T1 sequence (looked up, limits assumed)

[3] = biological target: T3, ZFP36L2 (UniProt P47974); conditions: protein in a lysate after overexpression, protein details: Myc-tagged, expressed in 293T cells, label: 3' flag peptide
T3 sequence (looked up, limits assumed): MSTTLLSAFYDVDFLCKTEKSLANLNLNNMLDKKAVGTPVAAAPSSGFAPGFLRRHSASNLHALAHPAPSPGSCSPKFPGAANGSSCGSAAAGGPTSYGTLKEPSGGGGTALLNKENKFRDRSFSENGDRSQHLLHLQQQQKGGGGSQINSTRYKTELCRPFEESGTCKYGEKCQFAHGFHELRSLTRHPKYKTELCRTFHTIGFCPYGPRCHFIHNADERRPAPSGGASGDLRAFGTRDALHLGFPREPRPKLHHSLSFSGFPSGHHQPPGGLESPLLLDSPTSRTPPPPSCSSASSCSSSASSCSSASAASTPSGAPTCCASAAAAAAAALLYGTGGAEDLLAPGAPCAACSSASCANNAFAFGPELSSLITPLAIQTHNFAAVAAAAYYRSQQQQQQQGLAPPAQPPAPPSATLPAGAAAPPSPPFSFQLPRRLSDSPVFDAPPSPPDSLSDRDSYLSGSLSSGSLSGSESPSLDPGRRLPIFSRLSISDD

[4] = biological target: T4, ZFP36L2 (endogenous) (UniProt P47974); conditions: identified by LC-MS/MS from 293T extract; protein in an extract; label: 3' flag peptide
T4 sequence (looked up, limits assumed): T3 sequence (looked up, limits assumed)

“ACAUCUGCCUGGAGUCCCGCCCCUGCCCAGAACCCUUCCUGAGACCUCGCCGGCCUUGUUUUAUUCAAAGACAGAGAAGACCAAAGCAUUGCCUGCCAGAGCUUUGUUUUAUAUAUUUAUUCAUCUGGGAGGCAGAACAGGCUUCGGACAGUGCCCAUGCAAUGGCUUGGGUUGGGAUUUUGGUUUCUUCCUUUCCUGUGAAGGAUAAGAGAAACAGGCCCGGGGGGACCAGGAUGACACCUCCAUUUCUCUCCAGGAAGUUUUGAGUUUCUCUCCACCGUGACACAAUCCUCAAACAUGGAAGAUGAAAGGGCAGGGGAUGUCAGGCCCAGAGAAGCAAGUGGCUUUCAACACACAACAGCAGAUGGCACCAACGGGACCCCCUGGCCCUGCCUCAUCCACCAAUCUCUAAGCCAAACCCCUAAACUCAGGAGUCAACGUGUUUACCUCUUCUAUGCAAGCCUUGCUAGACAGCCAGGUUAGCCUUUGCCCUGUCACCCCCGAAUCAUGACCCACCCAGUGUCUUUCGAGGUGGGUUUGUACCUUCCUUAAGCCAGGAAAGGGAUUCAUGGCGUCGGAAAUGAUCUGGCUGAAUCCGUGGUGGCACCGAGACCAAACUCAUUCACCAAAUGAUGCCACUUCCCAGAGGCAGAGCCUGAGUCACCGGUCACCCUUAAUAUUUAUUAAGUGCCUGAGACACCCGGUUACCUUGGCCGUGAGGACACGUGGCCUGCACCCAGGUGUGGCUGUCAGGACACCAGCCUGGUGCCCAUCCUCCCGACCCCUACCCACUUCCAUUCCCGUGGUCUCCUUGCACUUUCUCAGUUCAGAGUUGUACACUGUGUACAUUUGGCAUUUGUGUUAUUAUUUUGCACUGUUUUCUGUCGUGUGUGUUGGGAUGGGAUCCCA [LDLR 3'UTR (WT) 2677-3585]”: binds ([1]; anti-flag IP of RNA bait, anti-Myc Western, 4 C, signal lowered by LNA1-3 but not by control LNA4-5); binds [2]; binds ([3]; anti-flag IP of RNA bait, anti-Myc Western, 4 C, signal lowered by LNA1-3 and LNA6-14 but not by control LNA4-5). “ACAUCUGCCUGGAGUCCCGCCCCUGCCCAGAACCCUUCCUGAGACCUCGCCGGCCUUGUUUUAUUCAAAGACAGAGAAGACCAAAGCAUUGCCUGCCAGAGCUUUGUUUUAUAUAUUUAUUCAUCUGGGAGGCAGAACAGGCUUCGGACAGUGCCCAUGCAAUGGCUUGGGUUGGGAUUUUGGUUUCUUCCUUUCCUGUGAAGGAUAAGAGAAACAGGCCCGGGGGGACCAGGAUGACACCUCCAUUUCUCUCCAGGAAGUUUUGAGUUUCUCUCCACCGUGACACAAUCCUCAAACAUGGAAGAUGAAAGGGCAGGGGAUGUCAGGCCCAGAGAAGCAAGUGGCUUUCAACACACAACAGCAGAUGGCACCAACGGGACCCCCUGGCCCUGCCUCAUCCACCAAUCUCUAAGCCAAACCCCUAAACUCAGGAGUCAACGUGUUUACCUCUUCUAUGCAAGCCUUGCUAGACAGCCAGGUUAGCCUUUGCCCUGUCACCCCCGAAUCAUGACCCACCCAGUGUCUUUCGAGGUGGGUUUGUACCUUCCUUAAGCCAGGAAAGGGAUUCAUGGCGUCGGAAAUGAUCUGGCUGAAUCCGUGGUGGCACCGAGACCAAACUCAUUCACCAAAUGAUGCCACUUCCCAGAGGCAGAGCCUGAGUCACCGGUCACCCUUAAUAUUUAUUAAGUGCCUGAGACACCCGGUUACCUUGGCCGUGAGGACACGUGGCCUGCACCCAGGUGUGGCUGUCAGGACACCAGCCUGGUGCCCAUCCUCCCGACCCCUACCCACUUCCAUUCCCGUGGUCUCCUUGCACUUUCUCAGUUCAGAGUUGUACACUGUGUACAUUUGGCAUUUGUGUUAUUAUUUUGCACUGUUUUCUGUCGUGUGUGUUGGGAUGGGAUCCCA [LDLR 3'UTR (WT) 2677-3585]”: binds [4].

“UAGGCGGACUAUGACUUAGUUGCGUUACACCCUUUCUUGACAAAACCUAACUUGCGCAGAAAACAAGAUGAGAUUGGCAUGGCUUUAUUUGUUUUUUUUGUUUUGUUUUGGUUUUUUUUUUUUUUUUGGCUUGACUCAGGAUUUAAAAACUGGAACGGUGAAGGUGACAGCAGUCGGUUGGAGCGAGCAUCCCCCAAAGUUCACAAUGUGGCCGAGGACUUUGAUUGCACAUUGUUGUUUUUUUAAUAGUCAUUCCAAAUAUGAGAUGCAUUGUUACAGGAAGUCCCUUGCCAUCCUAAAAGCCACCCCACUUCUCUCUAAGGAGAAUGGCCCAGUCCUCUCCCAAGUCCACACAGGGGAGGUGAUAGCAUUGCUUUCGUGUAAAUUAUGUAAUGCAAAAUUUUUUUAAUCUUCGCCUUAAUACUUUUUUAUUUUGUUUUAUUUUGAAUGAUGAGCCUUCGUGCCCCCCCUUCCCCCUUUUUGUCCCCCAACUUGAGAUGUAUGAAGGCUUUUGGUCUCCCUGGGAGUGGGUGGAGGCAGCCAGGGCUUACCUGUACACUGACUUGAGACCA [beta-Actin 3'UTR 1199-1770]”: binds more weakly ([1]; extremely small signal); binds more weakly ([3]; extremely small signal).

Construct, isoform or probe ends are uncertain for at least one entry. Results from cells or extracts need not show a direct contact. For part of these data: Weaker means in comparison with the reference protein, sequence or condition of that experiment. Where a protein sequence is shown, tags need not be part of it.
